This note sets out measurements from PMC12719381.

Chains of the proteins cited; added tags and fusions are not shown. Lines headed by an entry give the natural chain unless they say otherwise; changes in a name come on top.
UniProt Q99873: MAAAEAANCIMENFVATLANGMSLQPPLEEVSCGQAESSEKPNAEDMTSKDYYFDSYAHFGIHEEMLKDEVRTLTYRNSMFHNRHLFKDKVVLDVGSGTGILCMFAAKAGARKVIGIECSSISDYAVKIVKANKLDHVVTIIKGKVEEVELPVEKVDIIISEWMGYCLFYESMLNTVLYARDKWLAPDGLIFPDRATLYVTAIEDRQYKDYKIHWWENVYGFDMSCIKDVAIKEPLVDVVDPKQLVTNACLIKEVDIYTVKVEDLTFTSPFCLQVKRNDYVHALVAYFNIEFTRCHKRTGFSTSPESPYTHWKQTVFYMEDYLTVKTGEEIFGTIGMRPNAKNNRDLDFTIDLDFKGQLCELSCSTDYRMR

Results are given in words; binding and its absence hold for the method and conditions named. In cells and extracts the contact can be indirect. Some entries that bind do so weakly or less than the wild type.

The target of assay [1] is T1, Fos-like antigen 1 (FOSL1) (human (endogenous in U251R and LN229R)) (UniProt P15407).
T1 sequence: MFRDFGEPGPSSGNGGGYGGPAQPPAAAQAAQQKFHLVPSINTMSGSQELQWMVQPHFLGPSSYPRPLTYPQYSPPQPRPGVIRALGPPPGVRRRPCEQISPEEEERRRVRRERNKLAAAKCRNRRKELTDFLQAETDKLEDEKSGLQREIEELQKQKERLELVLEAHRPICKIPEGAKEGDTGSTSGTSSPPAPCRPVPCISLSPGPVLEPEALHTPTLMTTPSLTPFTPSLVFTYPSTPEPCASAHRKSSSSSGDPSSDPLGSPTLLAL
Description: co-IP; endogenous proteins; U251R and LN229R cells lysed in RIPA buffer, pre-cleared, 1 ug anti-FOSL1 or anti-PRMT1 antibody or IgG for 16 h, Protein A/G agarose beads at 4 °C overnight, washed four times with PBS, immunoblot; silver staining of the co-IP samples.

Assay [2] concerns the target Protein Arginine Methyltransferase 1 (PRMT1) (human (endogenous in U251R and LN229R)) (UniProt Q99873). Described as above.

Consider “Protein Arginine Methyltransferase 1 (PRMT1) (from UniProt Q99873 1-371) (enzyme)”, for which, in assay [1], the binding result is listed as “binds”.

B1: Fos-like antigen 1 (FOSL1) (protein, UniProt P15407 1-271)
chain: MFRDFGEPGPSSGNGGGYGGPAQPPAAAQAAQQKFHLVPSINTMSGSQELQWMVQPHFLGPSSYPRPLTYPQYSPPQPRPGVIRALGPPPGVRRRPCEQISPEEEERRRVRRERNKLAAAKCRNRRKELTDFLQAETDKLEDEKSGLQREIEELQKQKERLELVLEAHRPICKIPEGAKEGDTGSTSGTSSPPAPCRPVPCISLSPGPVLEPEALHTPTLMTTPSLTPFTPSLVFTYPSTPEPCASAHRKSSSSSGDPSSDPLGSPTLLAL
For B1, the binding result in assay [2] was “binds”.
